Reference: the supplement of paper PMC6411743
± gives the standard deviation of the averaged measurements. Only a part is listed here, and it is no random draw.

Protein sequences, listed by entry. Tags and fused reporters are not part of them. Lines headed by an entry give the natural chain unless they say otherwise; changes in a name come on top.
UniProt Q66K89: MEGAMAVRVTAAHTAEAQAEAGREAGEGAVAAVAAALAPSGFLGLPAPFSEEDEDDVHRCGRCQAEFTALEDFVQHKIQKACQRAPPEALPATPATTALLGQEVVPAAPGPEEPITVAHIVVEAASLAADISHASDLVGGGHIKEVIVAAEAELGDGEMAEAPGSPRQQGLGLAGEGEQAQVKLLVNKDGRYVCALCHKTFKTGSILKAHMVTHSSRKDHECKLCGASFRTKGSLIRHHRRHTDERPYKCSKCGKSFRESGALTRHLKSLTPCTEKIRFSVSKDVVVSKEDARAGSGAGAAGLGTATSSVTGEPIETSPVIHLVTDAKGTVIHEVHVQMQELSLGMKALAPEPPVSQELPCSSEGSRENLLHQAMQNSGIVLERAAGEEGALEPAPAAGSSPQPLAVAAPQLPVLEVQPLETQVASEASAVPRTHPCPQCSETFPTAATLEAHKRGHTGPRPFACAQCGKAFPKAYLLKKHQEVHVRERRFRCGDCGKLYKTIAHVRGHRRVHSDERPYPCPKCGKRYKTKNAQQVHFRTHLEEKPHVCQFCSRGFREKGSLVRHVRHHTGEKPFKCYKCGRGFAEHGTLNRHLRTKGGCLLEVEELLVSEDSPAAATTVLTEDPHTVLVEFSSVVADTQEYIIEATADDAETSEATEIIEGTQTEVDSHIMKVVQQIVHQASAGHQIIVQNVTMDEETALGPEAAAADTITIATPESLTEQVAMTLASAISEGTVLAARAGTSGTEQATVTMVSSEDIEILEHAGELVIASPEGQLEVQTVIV
UniProt O75427: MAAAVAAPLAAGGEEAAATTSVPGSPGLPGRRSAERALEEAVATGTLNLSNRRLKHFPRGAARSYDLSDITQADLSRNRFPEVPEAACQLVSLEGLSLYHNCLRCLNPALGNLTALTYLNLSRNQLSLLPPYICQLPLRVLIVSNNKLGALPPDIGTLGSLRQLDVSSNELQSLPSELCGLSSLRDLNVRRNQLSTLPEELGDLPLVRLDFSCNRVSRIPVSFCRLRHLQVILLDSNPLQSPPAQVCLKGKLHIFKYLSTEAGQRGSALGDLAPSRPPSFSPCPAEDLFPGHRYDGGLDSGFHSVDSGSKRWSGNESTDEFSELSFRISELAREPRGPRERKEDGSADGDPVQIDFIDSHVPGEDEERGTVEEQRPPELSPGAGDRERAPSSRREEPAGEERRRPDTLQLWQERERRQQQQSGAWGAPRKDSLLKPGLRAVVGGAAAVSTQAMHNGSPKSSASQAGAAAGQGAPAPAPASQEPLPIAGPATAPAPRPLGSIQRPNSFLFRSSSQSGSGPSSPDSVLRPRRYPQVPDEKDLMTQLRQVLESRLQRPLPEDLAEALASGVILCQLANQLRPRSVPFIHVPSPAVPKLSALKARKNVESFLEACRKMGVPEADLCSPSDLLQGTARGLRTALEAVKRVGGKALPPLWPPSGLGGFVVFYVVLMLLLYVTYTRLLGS
UniProt Q8ND25: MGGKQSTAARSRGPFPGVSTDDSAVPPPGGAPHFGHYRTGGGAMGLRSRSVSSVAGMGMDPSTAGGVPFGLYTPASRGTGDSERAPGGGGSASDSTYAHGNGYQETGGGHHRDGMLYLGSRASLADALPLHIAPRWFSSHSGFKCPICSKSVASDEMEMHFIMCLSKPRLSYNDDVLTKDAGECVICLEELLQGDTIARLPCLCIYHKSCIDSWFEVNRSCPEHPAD
UniProt Q06323: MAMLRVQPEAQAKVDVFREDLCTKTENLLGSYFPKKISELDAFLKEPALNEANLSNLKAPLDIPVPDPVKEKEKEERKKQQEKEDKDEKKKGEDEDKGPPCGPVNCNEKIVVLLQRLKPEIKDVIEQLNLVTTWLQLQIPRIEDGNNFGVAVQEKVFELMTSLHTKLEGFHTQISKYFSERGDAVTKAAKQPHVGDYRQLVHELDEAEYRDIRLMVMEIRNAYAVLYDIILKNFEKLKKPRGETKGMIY
UniProt Q9Y375: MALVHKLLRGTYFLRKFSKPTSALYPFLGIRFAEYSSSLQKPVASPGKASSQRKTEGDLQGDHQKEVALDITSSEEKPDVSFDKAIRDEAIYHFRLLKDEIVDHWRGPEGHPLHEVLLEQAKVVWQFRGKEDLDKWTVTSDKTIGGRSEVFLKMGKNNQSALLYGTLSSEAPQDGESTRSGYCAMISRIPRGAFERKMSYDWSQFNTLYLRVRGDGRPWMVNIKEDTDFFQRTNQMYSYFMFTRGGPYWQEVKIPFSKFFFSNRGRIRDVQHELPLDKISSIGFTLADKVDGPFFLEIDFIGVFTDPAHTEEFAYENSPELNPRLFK
UniProt Q9BXS9: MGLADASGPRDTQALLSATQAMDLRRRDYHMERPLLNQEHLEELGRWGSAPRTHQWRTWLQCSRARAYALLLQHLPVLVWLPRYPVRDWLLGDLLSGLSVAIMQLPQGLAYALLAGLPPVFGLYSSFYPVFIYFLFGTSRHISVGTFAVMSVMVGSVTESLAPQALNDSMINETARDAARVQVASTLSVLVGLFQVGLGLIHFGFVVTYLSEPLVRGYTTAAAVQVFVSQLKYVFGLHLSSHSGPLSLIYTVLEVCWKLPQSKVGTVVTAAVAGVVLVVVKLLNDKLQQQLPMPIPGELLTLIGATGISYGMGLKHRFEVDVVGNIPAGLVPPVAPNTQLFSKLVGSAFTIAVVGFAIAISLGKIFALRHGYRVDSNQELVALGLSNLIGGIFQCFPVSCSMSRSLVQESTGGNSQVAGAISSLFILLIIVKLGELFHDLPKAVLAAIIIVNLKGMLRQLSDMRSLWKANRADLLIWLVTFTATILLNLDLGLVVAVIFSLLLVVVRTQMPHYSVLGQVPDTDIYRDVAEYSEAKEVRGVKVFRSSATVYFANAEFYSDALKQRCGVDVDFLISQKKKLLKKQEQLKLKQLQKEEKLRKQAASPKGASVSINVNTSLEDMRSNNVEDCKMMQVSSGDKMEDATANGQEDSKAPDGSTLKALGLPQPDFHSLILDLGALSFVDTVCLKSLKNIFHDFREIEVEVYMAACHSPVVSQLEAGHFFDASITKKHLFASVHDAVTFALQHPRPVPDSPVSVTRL
UniProt Q8WWI1: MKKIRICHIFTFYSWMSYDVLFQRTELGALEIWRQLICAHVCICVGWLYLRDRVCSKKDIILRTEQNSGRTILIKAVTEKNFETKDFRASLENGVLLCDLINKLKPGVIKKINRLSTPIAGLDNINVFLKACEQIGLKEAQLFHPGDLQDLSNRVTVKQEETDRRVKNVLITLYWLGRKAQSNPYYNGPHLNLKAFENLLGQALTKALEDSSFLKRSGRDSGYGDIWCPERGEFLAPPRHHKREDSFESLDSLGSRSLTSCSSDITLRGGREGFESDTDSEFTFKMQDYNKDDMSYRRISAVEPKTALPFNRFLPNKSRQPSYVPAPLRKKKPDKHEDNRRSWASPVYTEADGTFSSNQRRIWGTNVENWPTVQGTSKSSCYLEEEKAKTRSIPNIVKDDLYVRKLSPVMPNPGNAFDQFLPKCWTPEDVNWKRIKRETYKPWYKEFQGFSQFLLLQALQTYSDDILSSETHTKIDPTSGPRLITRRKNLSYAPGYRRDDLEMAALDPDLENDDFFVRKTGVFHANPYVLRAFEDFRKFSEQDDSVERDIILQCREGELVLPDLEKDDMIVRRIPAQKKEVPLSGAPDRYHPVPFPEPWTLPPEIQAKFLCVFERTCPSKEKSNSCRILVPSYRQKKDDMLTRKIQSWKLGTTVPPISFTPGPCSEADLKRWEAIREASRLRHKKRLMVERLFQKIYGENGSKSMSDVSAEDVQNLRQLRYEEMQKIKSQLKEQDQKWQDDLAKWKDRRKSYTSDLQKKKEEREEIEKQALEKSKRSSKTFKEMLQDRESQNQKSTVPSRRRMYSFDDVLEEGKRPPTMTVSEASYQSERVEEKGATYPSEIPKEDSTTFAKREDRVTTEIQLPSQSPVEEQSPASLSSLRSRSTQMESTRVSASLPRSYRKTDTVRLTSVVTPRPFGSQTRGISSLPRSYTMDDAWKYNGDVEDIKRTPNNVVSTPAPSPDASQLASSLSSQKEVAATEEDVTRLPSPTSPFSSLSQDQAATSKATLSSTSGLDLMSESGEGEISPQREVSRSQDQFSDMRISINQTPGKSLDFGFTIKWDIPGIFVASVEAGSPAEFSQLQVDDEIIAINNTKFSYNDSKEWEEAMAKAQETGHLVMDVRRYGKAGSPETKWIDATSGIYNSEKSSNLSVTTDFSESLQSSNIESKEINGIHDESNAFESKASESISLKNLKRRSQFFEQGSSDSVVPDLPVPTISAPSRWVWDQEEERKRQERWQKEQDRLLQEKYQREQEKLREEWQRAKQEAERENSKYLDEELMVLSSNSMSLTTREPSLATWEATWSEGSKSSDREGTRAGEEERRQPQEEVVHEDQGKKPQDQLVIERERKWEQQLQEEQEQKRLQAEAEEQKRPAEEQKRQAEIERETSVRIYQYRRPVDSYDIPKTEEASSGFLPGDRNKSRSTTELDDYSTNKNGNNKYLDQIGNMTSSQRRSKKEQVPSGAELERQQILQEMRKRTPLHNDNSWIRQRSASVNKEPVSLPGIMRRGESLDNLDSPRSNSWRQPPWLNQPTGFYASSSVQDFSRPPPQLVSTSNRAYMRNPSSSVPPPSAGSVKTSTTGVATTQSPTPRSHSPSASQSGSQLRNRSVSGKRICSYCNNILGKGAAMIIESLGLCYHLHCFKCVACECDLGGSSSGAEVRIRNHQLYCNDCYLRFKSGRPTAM
UniProt Q12982: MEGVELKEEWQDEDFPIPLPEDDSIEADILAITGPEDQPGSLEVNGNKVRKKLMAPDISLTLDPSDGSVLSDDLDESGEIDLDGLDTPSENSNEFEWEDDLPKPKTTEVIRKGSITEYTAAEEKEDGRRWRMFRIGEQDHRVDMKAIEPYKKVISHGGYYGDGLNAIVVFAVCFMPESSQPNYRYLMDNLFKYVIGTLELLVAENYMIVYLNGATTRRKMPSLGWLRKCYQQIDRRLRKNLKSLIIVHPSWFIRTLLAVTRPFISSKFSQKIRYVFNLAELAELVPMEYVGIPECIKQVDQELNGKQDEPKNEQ
UniProt Q9BQE5: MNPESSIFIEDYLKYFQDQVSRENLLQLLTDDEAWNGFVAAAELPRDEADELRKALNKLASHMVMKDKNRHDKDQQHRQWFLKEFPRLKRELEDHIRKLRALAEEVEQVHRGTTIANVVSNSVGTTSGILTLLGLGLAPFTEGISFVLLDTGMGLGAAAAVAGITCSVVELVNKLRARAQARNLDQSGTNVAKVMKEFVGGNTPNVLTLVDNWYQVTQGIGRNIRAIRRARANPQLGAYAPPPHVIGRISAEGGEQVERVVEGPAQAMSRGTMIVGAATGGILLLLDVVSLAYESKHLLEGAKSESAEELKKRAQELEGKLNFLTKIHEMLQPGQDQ
UniProt O75150, whole entry: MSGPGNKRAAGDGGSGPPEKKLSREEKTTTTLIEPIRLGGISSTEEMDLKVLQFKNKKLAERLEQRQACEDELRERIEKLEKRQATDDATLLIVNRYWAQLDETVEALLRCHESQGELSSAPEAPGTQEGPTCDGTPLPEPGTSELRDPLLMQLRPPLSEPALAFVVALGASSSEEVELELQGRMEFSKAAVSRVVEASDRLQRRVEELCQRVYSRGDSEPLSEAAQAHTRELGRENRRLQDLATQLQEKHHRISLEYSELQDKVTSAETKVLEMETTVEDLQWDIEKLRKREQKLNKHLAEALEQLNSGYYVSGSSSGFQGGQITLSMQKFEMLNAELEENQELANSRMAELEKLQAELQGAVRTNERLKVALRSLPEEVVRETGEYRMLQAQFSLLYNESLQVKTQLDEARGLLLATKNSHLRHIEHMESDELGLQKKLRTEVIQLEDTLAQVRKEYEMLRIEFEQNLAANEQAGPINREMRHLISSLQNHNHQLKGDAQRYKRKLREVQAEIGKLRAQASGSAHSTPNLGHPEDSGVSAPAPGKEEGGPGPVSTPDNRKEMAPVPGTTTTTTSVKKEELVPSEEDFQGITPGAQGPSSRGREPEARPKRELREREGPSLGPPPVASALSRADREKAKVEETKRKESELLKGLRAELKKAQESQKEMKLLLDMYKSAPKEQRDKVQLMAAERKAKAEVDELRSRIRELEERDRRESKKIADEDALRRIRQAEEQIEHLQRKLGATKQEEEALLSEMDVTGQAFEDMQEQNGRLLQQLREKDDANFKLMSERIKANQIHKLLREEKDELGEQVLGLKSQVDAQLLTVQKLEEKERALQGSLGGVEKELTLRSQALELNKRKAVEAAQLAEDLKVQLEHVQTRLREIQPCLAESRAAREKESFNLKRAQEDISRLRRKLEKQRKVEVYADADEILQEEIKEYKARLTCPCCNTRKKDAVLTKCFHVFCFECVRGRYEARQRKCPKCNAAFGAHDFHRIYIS
UniProt P78537: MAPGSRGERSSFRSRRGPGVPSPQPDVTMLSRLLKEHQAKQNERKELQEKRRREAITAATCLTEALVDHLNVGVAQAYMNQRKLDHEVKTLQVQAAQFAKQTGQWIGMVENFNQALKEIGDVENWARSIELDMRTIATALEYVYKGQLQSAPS

Compound: Nc1ncnc2c1ncn2[C@@H]1O[C@H](COP(=O)(O)OP(=O)(O)NP(=O)(O)O)[C@@H](O)[C@H]1O [adenylyl imidodiphosphate]
Experiment: NP40-soluble protein abundance relative to vehicle (solubility fold change) (ratio); higher = more soluble protein in presence of AMP-PNP
Outline: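 Across three independent experiments, values are fold changes against the detergent-processed vehicle for each replicate, based on vsn-normalised intensities. The samples were Jurkat crude lysate treated with eight concentrations (0.1 to 10 mM) for 10 min at room temperature and then 3 min at 37 °C. Lysate was solubilised with 0.8% NP40 and benzonase, ultracentrifuged, and the supernatant analysed by TMT-labelled LC-MS/MS.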

Target | NP40-soluble protein abundance (concentration: 1mM) | NP40-soluble protein abundance (concentration: 2mM) | NP40-soluble protein abundance (concentration: 4mM) | NP40-soluble protein abundance (concentration: 6mM) | NP40-soluble protein abundance (concentration: 8mM) | NP40-soluble protein abundance (concentration: 10mM)
H7BXF4 and related entries (UniProt Q9NXE4) | 0.979 ± 0.037 | 0.935 ± 0.035 | 0.996 ± 0.028 | 0.944 ± 0.026 | 0.984 ± 0.022 | 0.943 ± 0.024
H7C561 and related entries (UniProt Q15637) | 1.01 ± 0.038 | 1.09 ± 0.1 | 1.01 ± 0.061 | 1.02 ± 0.035 | 0.995 ± 0.018 | 1 ± 0.044
J3KMZ9 and related entries (UniProt P01130) | 0.992 ± 0.04 | 1.02 ± 0.035 | 1.02 ± 0.068 | 0.975 ± 0.032 | 0.959 ± 0.024 | 0.969 ± 0.049
H0YL70 and related entries (UniProt Q04726) | 1.01 ± 0.017 | 0.964 ± 0.024 | 0.999 ± 0.03 | 0.944 ± 0.021 | 0.968 ± 0.043 | 0.916 ± 0.026
H3BSL4 and related entries (UniProt Q66K89) | 0.9872 ± 0.0082 | 0.982 ± 0.011 | 0.982 ± 0.026 | 0.999 ± 0.011 | 0.979 ± 0.049 | 0.979 ± 0.038
H3BPT7 and related entries (UniProt Q8N554) | 1.01 ± 0.029 | 0.984 ± 0.013 | 0.9796 ± 0.0046 | 1.01 ± 0.037 | 0.992 ± 0.024 | 0.998 ± 0.024
H7C5D9 and related entries (UniProt O75427) | 1.05 ± 0.037 | 1.05 ± 0.05 | 1.02 ± 0.041 | 1.04 ± 0.07 | 1.04 ± 0.051 | 1.06 ± 0.051
H3BRB6 and related entries (UniProt Q8ND25) | 1.01 ± 0.014 | 1 ± 0.017 | 0.978 ± 0.035 | 0.946 ± 0.012 | 0.969 ± 0.017 | 0.924 ± 0.0025
J3KPP0 and related entries (UniProt Q9Y6G3) | 0.964 ± 0.014 | 0.966 ± 0.037 | 0.941 ± 0.033 | 0.949 ± 0.072 | 0.917 ± 0.068 | 0.925 ± 0.074
G3V5N8 and related entries (UniProt Q9HBF4) | 0.991 ± 0.012 | 0.986 ± 0.035 | 0.987 ± 0.054 | 0.96 ± 0.021 | 0.968 ± 0.0098 | 0.938 ± 0.047
H0YKK6 and related entries (UniProt Q06323) | 0.924 ± 0.058 | 1.01 ± 0.062 | 0.892 ± 0.062 | 0.924 ± 0.062 | 0.908 ± 0.027 | 0.821 ± 0.09
H0YL22 and related entries (UniProt Q9Y375) | 1 ± 0.023 | 0.988 ± 0.047 | 0.987 ± 0.038 | 0.953 ± 0.025 | 0.948 ± 0.032 | 0.965 ± 0.026
H0YEF3 and related entries (UniProt Q8TDP1) | 0.989 ± 0.021 | 0.962 ± 0.051 | 0.983 ± 0.015 | 1.01 ± 0.044 | 1.02 ± 0.04 | 0.971 ± 0.045
H0Y9Z5 and related entries (UniProt Q96LI5) | 0.9588 ± 0.0024 | 0.9201 ± 0.0062 | 0.95702 ± 0.00066 | 0.976 ± 0.055 | 0.972 ± 0.069 | 0.961 ± 0.029
G3V5T9 and related entries (UniProt P24941) | 0.988 ± 0.06 | 0.934 ± 0.027 | 0.978 ± 0.054 | 1 ± 0.062 | 1.01 ± 0.025 | 0.99 ± 0.055
G3XAC1 and related entries (UniProt Q9BXS9) | 0.969 ± 0.019 | 0.95 ± 0.042 | 0.994 ± 0.044 | 0.98 ± 0.032 | 0.993 ± 0.019 | 1.02 ± 0.07
H0YK61 and related entries (UniProt Q5J8M3) | 1.01 ± 0.033 | 1 ± 0.067 | 1.03 ± 0.06 | 0.983 ± 0.027 | 0.967 ± 0.042 | 1.02 ± 0.072
J3KP06 and related entries (UniProt Q8WWI1) | 1.06 ± 0.017 | 1.109 ± 0.0053 | 1.16 ± 0.084 | 1.18 ± 0.065 | 1.19 ± 0.025 | 1.27 ± 0.051
J3KTE4 and related entries (UniProt P84098) | 1.01 ± 0.069 | 1.03 ± 0.093 | 1 ± 0.065 | 0.966 ± 0.07 | 0.902 ± 0.13 | 1.07 ± 0.015
J3KN59 and related entries (UniProt Q12982) | 1.06 ± 0.063 | 1.06 ± 0.024 | 1.01 ± 0.03 | 1 ± 0.079 | 0.986 ± 0.046 | 0.992 ± 0.029
J3KQL8 and related entries (UniProt Q9BQE5) | 0.968 ± 0.02 | 0.98 ± 0.049 | 0.981 ± 0.036 | 0.959 ± 0.026 | 0.962 ± 0.031 | 0.952 ± 0.038
H3BNX8 and related entries (UniProt P20674) | 1.05 ± 0.065 | 1.07 ± 0.015 | 1.02 ± 0.041 | 1.01 ± 0.068 | 1 ± 0.062 | 0.974 ± 0.052
J3KS94 and related entries (UniProt P02686) | 0.968 ± 0.054 | 0.993 ± 0.035 | 0.96 ± 0.03 | 0.928 ± 0.033 | 0.896 ± 0.013 | 0.903 ± 0.029
H0YAR2 and related entries (UniProt P11940) | 1.01 ± 0.02 | 1.03 ± 0.052 | 0.998 ± 0.046 | 1.04 ± 0.035 | 1.01 ± 0.021 | 1.03 ± 0.021
J3KTA4 and related entries (UniProt P17844) | 1.03 ± 0.038 | 0.958 ± 0.15 | 1 ± 0.066 | 0.995 ± 0.14 | 1 ± 0.1 | 0.975 ± 0.13
H3BP71 and related entries (UniProt O75150) | 1.05 ± 0.032 | 1.08 ± 0.032 | 1.04 ± 0.017 | 1.03 ± 0.034 | 1.01 ± 0.015 | 1.04 ± 0.032
G8JLQ3 and related entries (UniProt P78537) | 1.01 ± 0.043 | 1.03 ± 0.018 | 0.9428 ± 0.0055 | 0.879 ± 0.017 | 0.901 ± 0.05 | 0.862 ± 0.043
H7C5I3 and related entries (UniProt P35236) | 0.978 ± 0.0098 | 1.01 ± 0.021 | 0.994 ± 0.037 | 0.978 ± 0.011 | 0.959 ± 0.018 | 0.982 ± 0.033

2 neighbouring records already listed, for reference:
Target | NP40-soluble protein abundance (concentration: 1mM) | NP40-soluble protein abundance (concentration: 2mM) | NP40-soluble protein abundance (concentration: 4mM) | NP40-soluble protein abundance (concentration: 6mM) | NP40-soluble protein abundance (concentration: 8mM) | NP40-soluble protein abundance (concentration: 10mM)
H3BPT7 and related entries (UniProt Q8N554) | 1.01 ± 0.029 | 0.984 ± 0.013 | 0.9796 ± 0.0046 | 1.01 ± 0.037 | 0.992 ± 0.024 | 0.998 ± 0.024
H7C5D9 and related entries (UniProt O75427) | 1.05 ± 0.037 | 1.05 ± 0.05 | 1.02 ± 0.041 | 1.04 ± 0.07 | 1.04 ± 0.051 | 1.06 ± 0.051
